# Test results as given in patent publication US20240189330A1, “Compositions and Methods for Inhibiting and Treating Viral Infections” (The Regents of the University of California, priority 2021, published 2024).
# “Also recorded” adds a separate entry of the source. Like-named read-outs stand apart in the source and are kept apart here. At least one compound was matched to its structure with a doubt left.
# Columns and labels:
# [1] = test system: Human rhinovirus type 16 (HRV16); type: cell-based
# [2] = test system: Respiratory Syncytial Virus (RSV); conditions: stated as known; cited from earlier work
# [3] = test system: Human rhinovirus type 16 (HRV16); type: cell-based; remark: listed apart in the source
# [4] = test system: Influenza A Virus, subtype H1N1; type: cell-based
# [5] = test system: Influenza A Virus, subtype H1N1; type: cell-based; remark: listed apart in the source
smiles,measurement,setting,value
"COC1=C(OC)C(=O)C(CCCCCCCCCC[P+](c2ccccc2)(c2ccccc2)c2ccccc2)=C(C)C1=O [Mito-MES, 10-(4,5-dimethoxy-2-methyl-3,6-dioxo-1,4-cyclohexadienyl) decyl triphenylphosphonium]",HRV16 viral replication by qPCR,[1],minimally inhibit HRV16 replication; also recorded: little antiviral activity
same,antiviral activity against RSV,[2],antiviral activity
same,HRV16 viral replication by qPCR,[3],minimally inhibits HRV16 replication
same,H1N1 viral replication by qPCR,[4],inhibit H1N1 replication; also recorded: inhibit the replication
same,H1N1 viral replication by qPCR,[5],inhibits H1N1 replication
